PubChem BioAssay AID1159578 – Peter MacCallum Cancer Centre | 2015
Aim: 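Knock-downs that alter how fast lymphatic endothelial cells migrate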 (primary screen). Cells: human lymphatic endothelial cells. Reagent: siRNA pool against human genes, 40 nM. Timing: 48 h after transfection. Measurement: 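High-content imaging of dye-stained cells in a scratch assay measures filled wound area and nuclei per well; duplicate means given as ratio to mock and robust z-score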. Direction: migration robust z-score: higher = faster migration into the scratch; migration relative to mock: higher = more scratch area covered than mock; nuclei per well: higher = more cells in the well. Call rule: 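Migration changed when robust z exceeds 2 or falls below -2 and mean nuclei number is at least 3300; otherwise not called changed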. Meaning of the calls: active = migration changed; inactive = no migration change, or too few cells.
In all, the deposit lists about 18,000 reagents; below is a random part of them. About 1,030 of them (5.7%) count as active. 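Inactive calls also include pools with fewer than 3300 nuclei, whose migration was not assessed.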 Raw values are not corrected between plates.

Gene | migration robust z-score | migration class with cell-count check | migration relative to mock | nuclei per well, duplicate mean | activity call
KBTBD11 (kelch repeat and BTB domain containing 11) | 0.39 | migration z between -2 and 2; enough cells | 0.99 | 5782 | inactive
ZBED10P (zinc finger BED-type containing 10, pseudogene) | 0.29 | migration z between -2 and 2; enough cells | 0.96 | 6234 | inactive
DPPA2 (developmental pluripotency associated 2) | 1.14 | migration z between -2 and 2; enough cells | 1.17 | 6920 | inactive
GRWD1 (glutamate rich WD repeat containing 1) | -0.8 | migration z between -2 and 2; enough cells | 0.68 | 5655 | inactive
TAPBPL (TAP binding protein like) | -0.44 | migration z between -2 and 2; enough cells | 0.77 | 5826 | inactive
BLK (BLK proto-oncogene, Src family tyrosine kinase) | -0.73 | migration z between -2 and 2; enough cells | 0.66 | 5411 | inactive
KRTAP4-5 (keratin associated protein 4-5) | 0.6 | migration z between -2 and 2; enough cells | 1.04 | 5056 | inactive
IFI16 (interferon gamma inducible protein 16) | -1.09 | migration z between -2 and 2; enough cells | 0.6 | 5329 | inactive
PLS1 (plastin 1) | -0.89 | migration z between -2 and 2; enough cells | 0.66 | 5684 | inactive
IPO5 (importin 5) | 0.8 | migration z between -2 and 2; enough cells | 0.96 | 5352 | inactive
EEF1A1 (eukaryotic translation elongation factor 1 alpha 1) | -0.47 | migration z between -2 and 2; enough cells | 0.72 | 4886 | inactive
MEIS3 (Meis homeobox 3) | -0.56 | migration z between -2 and 2; enough cells | 0.74 | 5942 | inactive
ANKRD13B (ankyrin repeat domain 13B) | -0.66 | migration z between -2 and 2; enough cells | 0.71 | 3910 | inactive
GALE (UDP-galactose-4-epimerase) | 1.29 | migration z between -2 and 2; enough cells | 1.05 | 4290 | inactive
INPP5F (inositol polyphosphate-5-phosphatase F) | -0.26 | migration z between -2 and 2; enough cells | 0.76 | 5063 | inactive
UNC45A (unc-45 myosin chaperone A) | 0.19 | migration z between -2 and 2; enough cells | 0.94 | 5622 | inactive
SRD5A2 (steroid 5 alpha-reductase 2) | -0.96 | migration z between -2 and 2; enough cells | 0.62 | 3404 | inactive
ARID4B (AT-rich interaction domain 4B) | 2.86 | migration z above 2; enough cells | 1.62 | 6716 | active
CLLU1-AS1 (CLLU1 antisense RNA 1) | -0.58 | migration z between -2 and 2; enough cells | 0.74 | 5795 | inactive
HBZ (hemoglobin subunit zeta) | 1.31 | migration z between -2 and 2; enough cells | 1.23 | 6792 | inactive
IFT172 (intraflagellar transport 172) | -1.38 | migration z between -2 and 2; enough cells | 0.52 | 5766 | inactive
SSBP3 (single stranded DNA binding protein 3) | -0.36 | migration z between -2 and 2; enough cells | 0.79 | 5080 | inactive
EIF4EBP2 | -1.56 | migration z between -2 and 2; enough cells | 0.48 | 4696 | inactive
NKD1 (NKD inhibitor of Wnt signaling pathway 1) | -2.36 | migration z below -2; enough cells | 0.28 | 5330 | active
SAXO4 (stabilizer of axonemal microtubules 4) | 1.1 | migration z between -2 and 2; enough cells | 1.17 | 5283 | inactive
GASK1B (golgi associated kinase 1B) | 0.34 | migration z between -2 and 2; enough cells | 0.97 | 6381 | inactive
PTK2B (protein tyrosine kinase 2 beta) | 0.42 | migration z between -2 and 2; enough cells | 0.88 | 4999 | inactive
HRH3 (histamine receptor H3) | 0.72 | migration z between -2 and 2; enough cells | 0.94 | 6296 | inactive
FBXO27 (F-box protein 27) | -1.79 | migration z between -2 and 2; enough cells | 0.46 | 5417 | inactive
ZNF367 (zinc finger protein 367) | 1.11 | migration z between -2 and 2; enough cells | 1.17 | 5574 | inactive
GABRG3 (gamma-aminobutyric acid type A receptor subunit gamma3) | 0.13 | migration z between -2 and 2; enough cells | 0.83 | 3724 | inactive
ID2 (inhibitor of DNA binding 2) | -1.01 | migration z between -2 and 2; enough cells | 0.61 | 7358 | inactive
KYNU (kynureninase) | 0.83 | migration z between -2 and 2; enough cells | 0.96 | 5256 | inactive
IMPG1 (interphotoreceptor matrix proteoglycan 1) | -0.07 | migration z between -2 and 2; enough cells | 0.86 | 5302 | inactive
STAC2 (SH3 and cysteine rich domain 2) | -0.85 | migration z between -2 and 2; enough cells | 0.67 | 5646 | inactive
SECISBP2L (SECIS binding protein 2 like) | 0.37 | migration z between -2 and 2; enough cells | 0.99 | 4594 | inactive
MIGA2 (mitoguardin 2) | -0.57 | migration z between -2 and 2; enough cells | 0.74 | 5942 | inactive
MACROH2A2 (macroH2A.2 histone) | -0.37 | migration z between -2 and 2; enough cells | 0.79 | 5615 | inactive
ARHGAP6 (Rho GTPase activating protein 6) | -0.62 | migration z between -2 and 2; enough cells | 0.72 | 6058 | inactive

An excerpt from the list above, for reference:
Gene | migration robust z-score | migration class with cell-count check | migration relative to mock | nuclei per well, duplicate mean | activity call
CLLU1-AS1 (CLLU1 antisense RNA 1) | -0.58 | migration z between -2 and 2; enough cells | 0.74 | 5795 | inactive
HBZ (hemoglobin subunit zeta) | 1.31 | migration z between -2 and 2; enough cells | 1.23 | 6792 | inactive
IFT172 (intraflagellar transport 172) | -1.38 | migration z between -2 and 2; enough cells | 0.52 | 5766 | inactive
